The source of these data is patent EP2123670B1.

Sequences of proteins named here, by UniProt entry; tags and fusion partners are left off. A change or cut given only in a name is not applied to a line headed by its entry. Residues count along the entry.
UniProt P00747, residues 97-810: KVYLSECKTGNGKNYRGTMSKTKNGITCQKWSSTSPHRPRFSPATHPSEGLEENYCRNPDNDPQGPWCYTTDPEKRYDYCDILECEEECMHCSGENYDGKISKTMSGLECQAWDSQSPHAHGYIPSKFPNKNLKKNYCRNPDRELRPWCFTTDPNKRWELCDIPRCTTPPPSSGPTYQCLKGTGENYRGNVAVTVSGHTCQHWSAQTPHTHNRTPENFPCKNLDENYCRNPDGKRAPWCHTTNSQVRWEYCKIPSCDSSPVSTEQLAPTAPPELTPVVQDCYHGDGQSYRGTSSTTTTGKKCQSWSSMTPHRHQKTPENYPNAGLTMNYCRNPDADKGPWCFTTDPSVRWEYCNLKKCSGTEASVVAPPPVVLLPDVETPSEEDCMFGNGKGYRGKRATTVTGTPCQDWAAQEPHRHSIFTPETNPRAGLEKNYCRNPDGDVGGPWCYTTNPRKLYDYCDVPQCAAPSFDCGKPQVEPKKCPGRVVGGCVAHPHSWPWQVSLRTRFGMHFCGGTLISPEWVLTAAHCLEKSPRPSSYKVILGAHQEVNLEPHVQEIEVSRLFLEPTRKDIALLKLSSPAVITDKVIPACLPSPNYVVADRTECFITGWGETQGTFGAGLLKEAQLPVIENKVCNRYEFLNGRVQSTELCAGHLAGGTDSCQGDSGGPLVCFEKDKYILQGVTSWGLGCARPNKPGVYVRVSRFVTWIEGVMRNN
UniProt Q9GP15: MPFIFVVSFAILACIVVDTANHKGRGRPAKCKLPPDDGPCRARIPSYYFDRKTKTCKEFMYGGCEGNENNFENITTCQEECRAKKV

Results are given in words; binding and its absence hold for the method and conditions named. Some binding calls cover weakened binding; strength is not graded here.

The target in assay [1] is plasmin (UniProt P00747). The assay is described as follows: SPR, GST immobilised (about 1000 RU) as negative control, plasmin injected.
In assay [2] the target is plasmin (UniProt P00747). The assay is described as follows: SPR, Ir-CPI immobilised.
The target in assay [3] is plasmin (UniProt P00747). The assay is described as follows: SPR, Ir-CPI immobilised at 1500 RU, factor injected at 100 nM.

For “GST protein (from UniProt P08515 1-218) (enzyme)”, the binding result with plasmin [1] is on record as “binds”. For the substance Ir-CPI (from UniProt Q9GP15 20-86), the binding result with plasmin [2] and with plasmin [3] was “binds” in each case.
